Literature values in patent US20060205626A1, “Cleaning compound for a medical or dental office” (priority 2005, published 2006).

Conditions: aqueous solution

## O=S(=O)([O-])O[O-].[K+].[K+] [Potassium peroxymonosulfate]
  pH of minimum stability in solution: 9
